Source: PubChem BioAssay AID1259415 (National Center for Advancing Translational Sciences (NCATS), 2018)
Screen size: about 410,000 compounds; about 18,000 (4.4%) were called active. The shares of active, inactive and inconclusive entries below differ from those in the screen. Rule as the data show it: active = activity change below about -60%; inconclusive = no clear call, values can overlap the other calls; inactive = above about -39%.

Assay: qHTS Assay for inhibitors of the human cytomegalovirus (HCMV)
Conditions: HFF cells, HCMV-luciferase reporter, 72 h; at 57.5 µM; active compounds read low
Method in brief: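 Cell-based, HFFs, 1000 cells/well, 16 h 37C; cpds in DMSO + HCMV-luc, MOI 1 PFU/cell; 72 h 37C; OneGlo luminescence after 5 min RT; norm. to buffer vs Salinomycin 10uM.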
% is scaled to controls: 0 for no effect and ±100 for the full control effect.

Row | SMILES | activity change, negative = inhibition
1 | O=C(O)c1ccc(Cl)cc1Nc1nc2cc(Cl)ccc2o1 | inactive: 22.4%
2 | CCOC(=O)[C@]12Cc3cc(C)ccc3[C@H]1N(CCC(=O)OC)C(=O)c1ccccc12 | active: -110%
3 | O=C(OCC(=O)N1CCOCC1)c1ccc(Cl)c(S(=O)(=O)N2CCc3ccccc32)c1 | inactive: 4.29%
4 | CC(NC1CCCCC1)C(=O)NN=C(c1ccccc1)c1ccccc1 (centres undefined) | inconclusive: -47.4%
5 | COC(=O)CNC(c1ccccc1)c1cc(Br)ccc1NS(=O)(=O)c1ccccc1 (centres undefined) | inactive: -13.8%
6 | O=C(Nc1ccccc1)N(Cc1cccc(Cl)c1)c1ccccn1 | inactive: -7.97%
7 | O=C1c2ccccc2C(Nc2ccccc2)N1c1ccc(Cl)cn1 (centres undefined) | inactive: 16.9%
8 | CCOC(=O)N1CCN(C(=O)CCCn2nnnc2CN2CCC(C)CC2)CC1 | inactive: 12.3%
9 | CCn1cc(C(=O)N[C@@H](CCSC)C(=O)NC(C)(C)CO)c(=O)c2cc3c(cc21)OCO3 | inconclusive: -47.7%
10 | COc1cc(C(=O)Nc2c(C(=O)O)[nH]c3ccccc23)cc(OC)c1OC | inactive: 25.6%
11 | O=C(CSc1ncc(S(=O)(=O)c2ccc(Br)cc2)c(=O)[nH]1)Nc1ccc2c(c1)OCCO2 | inactive: 3.97%
12 | O=S(=O)(Cc1ccccc1)NC1c2ccccc2Oc2ccccc21 | inconclusive: -44.5%
13 | Cc1ccc(NC(=O)COC(=O)CC2CCCC2)cc1F | inconclusive: -49%
14 | Cc1ccccc1C(=O)N[C@H](C(=O)OCC(=O)c1ccc[nH]1)C(C)C | inconclusive: -41.3%
15 | Cc1cccc(N2CCN(C(=S)NC3CCCCC3)CC2)c1C | inconclusive: -53.9%
16 | S=c1[nH]nc(COc2ccc3c(c2)OCO3)n1-c1ccccc1 | inactive: -7.31%
17 | CSc1ccccc1N1CCN(C(=O)Nc2ccc3c(c2)NC(=O)CO3)CC1 | inconclusive: -46.3%
18 | Cc1ccc(S(=O)(=O)Nc2nc(C)cc(NCCN)n2)cc1 | inconclusive: -45.3%
19 | COc1ccccc1CC(=O)Nc1ccc2nc(Nc3cccc(Cl)c3)cc(C)c2c1 | inconclusive: -43.4%
20 | Cc1ccc(N(CC(=O)N2CCN(Cc3ccccc3)CC2)S(C)(=O)=O)cc1C | inactive: -23%
21 | COc1cccc(Oc2cc(NN3CCCCC3)c([N+](=O)[O-])cc2[N+](=O)[O-])c1OC | inconclusive: -45.6%
22 | NC(=O)c1c(NC(=O)Cn2nc(C(=O)O)c3ccccc3c2=O)sc2c1CCCC2 | inconclusive: -46.4%
23 | O=C(COC(=O)CCc1c[nH]c2ccccc12)Nc1ccccc1 | inactive: -2.45%
24 | COc1ccc(/C=N/N(Cc2ccccc2)c2ccccc2)cc1O | inconclusive: -41.8%

In another format: results already given

| Row | SMILES | activity change, negative = inhibition |
| --- | --- | --- |
| 8 | CCOC(=O)N1CCN(C(=O)CCCn2nnnc2CN2CCC(C)CC2)CC1 | inactive: 12.3% |
| 24 | COc1ccc(/C=N/N(Cc2ccccc2)c2ccccc2)cc1O | inconclusive: -41.8% |
